Where two headings read alike, the source gives them in different places. No constants are given. Whether binding was seen depends on the method and setting. Binding seen in cells or lysates may run through a third protein. Here binding means that the protein was enriched with, or labelled near, the bait; the list need not be complete.
T1: PCGF3 (human (endogenous in human PSCs)) (UniProt Q3KNV8)
T1 sequence: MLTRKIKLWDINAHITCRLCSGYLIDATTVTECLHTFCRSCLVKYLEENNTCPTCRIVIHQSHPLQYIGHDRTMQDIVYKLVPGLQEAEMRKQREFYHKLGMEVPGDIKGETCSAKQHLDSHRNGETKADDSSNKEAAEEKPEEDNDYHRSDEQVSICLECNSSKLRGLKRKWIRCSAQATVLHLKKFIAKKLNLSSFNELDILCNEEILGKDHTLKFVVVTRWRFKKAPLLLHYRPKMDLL

Protein sequences, listed by entry. Tags and fused reporters are not part of them.
UniProt Q9UJW3: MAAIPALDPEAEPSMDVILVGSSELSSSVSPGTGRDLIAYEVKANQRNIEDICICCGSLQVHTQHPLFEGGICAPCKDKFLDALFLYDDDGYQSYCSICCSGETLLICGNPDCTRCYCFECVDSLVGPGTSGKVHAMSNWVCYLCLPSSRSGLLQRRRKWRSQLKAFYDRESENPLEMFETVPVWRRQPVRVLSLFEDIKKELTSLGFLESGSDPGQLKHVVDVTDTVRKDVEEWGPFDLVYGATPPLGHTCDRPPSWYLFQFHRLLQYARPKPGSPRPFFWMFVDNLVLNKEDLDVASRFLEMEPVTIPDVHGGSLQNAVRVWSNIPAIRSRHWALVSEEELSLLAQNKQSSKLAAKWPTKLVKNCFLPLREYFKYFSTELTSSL
UniProt Q02539: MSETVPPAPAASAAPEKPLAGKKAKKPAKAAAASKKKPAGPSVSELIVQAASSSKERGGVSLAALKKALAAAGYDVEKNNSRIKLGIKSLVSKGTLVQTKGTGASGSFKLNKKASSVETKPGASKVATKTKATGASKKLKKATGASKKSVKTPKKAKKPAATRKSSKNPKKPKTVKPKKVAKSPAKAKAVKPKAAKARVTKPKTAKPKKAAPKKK


Columns and labels:
[1] = biological target: T1, PCGF3 (human (endogenous in human PSCs)); assay: affinity purification with mass spectrometry; qPLEX-RIME: cells cross-linked with di(N-succinimidyl) glutarate and paraformaldehyde, chromatin sonicated, anti-PCGF3+5 antibody on Protein A beads, 10 washes in RIPA with 500 mM LiCl, TMT mass spectrometry; naïve, 48-hour 5i/L/A and primed PSCs; control primed PSCs lacking PCGF3 and PCGF5
[2] = biological target: T1, PCGF3 (human (endogenous in human PSCs)); assay: as above; remark: listed apart in the source

Molecule | binding [1] | binding [2]
DNA methyltransferase regulator DNMT3L (from UniProt Q9UJW3 1-386) | binds | –
Activator of transcription and developmental regulator (AUTS2) (protein, UniProt Q8WXX7 1-1259) MDGPTRGHGLRKKRRSRSQRDRERRSRGGLGAGAAGGGGAGRTRALSLASSSGSDKEDNGKPPSSAPSRPRPPRRKRRESTSAEEDIIDGFAMTSFVTFEALEKDVALKPQERVEKRQTPLTKKKREALTNGLSFHSKKSRLSHPHHYSSDRENDRNLCQHLGKRKKMPKALRQLKPGQNSCRDSDSESASGESKGFHRSSSRERLSDSSAPSSLGTGYFCDSDSDQEEKASDASSEKLFNTVIVNKDPELGVGTLPEHDSQDAGPIVPKISGLERSQEKSQDCCKEPIFEPVVLKDPCPQVAQPIPQPQTEPQLRAPSPDPDLVQRTEAPPQPPPLSTQPPQGPPEAQLQPAPQPQVQRPPRPQSPTQLLHQNLPPVQAHPSAQSLSQPLSAYNSSSLSLNSLSSSRSSTPAKTQPAPPHISHHPSASPFPLSLPNHSPLHSFTPTLQPPAHSHHPNMFAPPTALPPPPPLTSGSLQVAGHPAGSTYSEQDILRQELNTRFLASQSADRGASLGPPPYLRTEFHQHQHQHQHTHQHTHQHTFTPFPHAIPPTAIMPTPAPPMFDKYPTKVDPFYRHSLFHSYPPAVSGIPPMIPPTGPFGSLQGAFQPKTSNPIDVAARPGTVPHTLLQKDPRLTDPFRPMLRKPGKWCAMHVHIAWQIYHHQQKVKKQMQSDPHKLDFGLKPEFLSRPPGPSLFGAIHHPHDLARPSTLFSAAGAAHPTGTPFGPPPHHSNFLNPAAHLEPFNRPSTFTGLAAVGGNAFGGLGNPSVTPNSMFGHKDGPSVQNFSNPHEPWNRLHRTPPSFPTPPPWLKPGELERSASAAAHDRDRDVDKRDSSVSKDDKERESVEKRHSSHPSPAPVLPVNALGHTRSSTEQIRAHLNTEAREKDKPKERERDHSESRKDLAADEHKAKEGHLPEKDGHGHEGRAAGEEAKQLARVPSPYVRTPVVESARPNSTSSREAEPRKGEPAYENPKKSSEVKVKEERKEDHDLPPEAPQTHRASEPPPPNSSSSVHPGPLASMPMTVGVTGIHPMNSISSLDRTRMMTPFMGISPLPGGERFPYPSFHWDPIRDPLRDPYRELDIHRRDPLGRDFLLRNDPLHRLSTPRLYEADRSFRDREPHDYSHHHHHHHHPLSVDPRREHERGGHLDERERLHMLREDYEHTRLHSVHPASLDGHLPHPSLITPGLPSMHYPRISPTAGNQNGLLNKTPPTAALSAPPPLISTLGGRPVSPRRTTPLSAEIRERPPSHTLKDIEAR | – | binds

Continued, values first:

binding [1] | binding [2] | Molecule
binds | – | linker DNA binding histone protein HISTH1.1 (from UniProt Q02539 1-215)
– | binds | PR/SET domain 14 (PRDM14) (protein, UniProt Q9GZV8 1-571) MALPRPSEAVPQDKVCYPPESSPQNLAAYYTPFPSYGHYRNSLATVEEDFQPFRQLEAAASAAPAMPPFPFRMAPPLLSPGLGLQREPLYDLPWYSKLPPWYPIPHVPREVPPFLSSSHEYAGASSEDLGHQIIGGDNESGPCCGPDTLIPPPPADASLLPEGLRTSQLLPCSPSKQSEDGPKPSNQEGKSPARFQFTEEDLHFVLYGVTPSLEHPASLHHAISGLLVPPDSSGSDSLPQTLDKDSLQLPEGLCLMQTVFGEVPHFGVFCSSFIAKGVRFGPFQGKVVNASEVKTYGDNSVMWEIFEDGHLSHFIDGKGGTGNWMSYVNCARFPKEQNLVAVQCQGHIFYESCKEIHQNQELLVWYGDCYEKFLDIPVSLQVTEPGKQPSGPSEESAEGYRCERCGKVFTYKYYRDKHLKYTPCVDKGDRKFPCSLCKRSFEKRDRLRIHILHVHEKHRPHKCSTCGKCFSQSSSLNKHMRVHSGDRPYQCVYCTKRFTASSILRTHIRQHSGEKPFKCKYCGKSFASHAAHDSHVRRSHKEDDGCSCSICGKIFSDQETFYSHMKFHEDY
– | binds | Fibrosin (FBRS) (protein, UniProt Q9HAH7 1-460) MFEKYPGKMEGLFRHNPYTAFPPAVPGLPPGLPPAVSFGSLQGAFQPKSTNPELPPRLGPVPSGLSQKGTQIPDHFRPPLRKPGKWCAMHVRVAYMILRHQEKMKGDSHKLDFRNDLLPCLPGPYGALPPGQELSHPASLFTATGAVHAAANPFTAAPGAHGPFLSPSTHIDPFGRPTSFASLAALSNGAFGGLGSPTFNSGAVFAQKESPGAPPAFASPPDPWGRLHRSPLTFPAWVRPPEAARTPGSDKERPVERREPSITKEEKDRDLPFSRPQLRVSPATPKARAGEEGPRPTKESVRVKEERKEEAAAAAAAAAAAAAAAAAAATGPQGLHLLFERPRPPPFLGPSPPDRCAGFLEPTWLAAPPRLARPPRFYEAGEELTGPGAVAAARLYGLEPAHPLLYSRLAPPPPPAAAPGTPHLLSKTPPGALLGAPPPLVPAPRPSSPPRGPGPARADR
